PubChem BioAssay AID1259308, NCATS – 2017

- Assay: 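Knock-downs that increase output of a recombinant reporter protein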 (primary screen)
- Cells: human HEK293 embryonic kidney cells stably expressing firefly luciferase (HEK-CMV-Luc2-Hygro)
- Reagents: single siRNA against human genes, 0.8 pmol siRNA per well
- Duration: 72 h
- Detection: 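Reporter luminescence and viable-cell signal on separate replicate plates, given as percent of non-targeting control and median/MAD z-scores, plus per-cell luciferase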
- Reading the numbers: total luciferase, z-score and total luciferase, % of control: higher = more reporter protein produced
- Active means: 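An siRNA counts as active if its total luciferase robust z-score exceeds 3; genes with two or more such siRNAs out of three were retested with fresh siRNAs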
- Calls: active = raised luciferase; inactive = no rise
The deposit covers about 59,000 reagents; shown is an unselected part. Of all reagents, about 1,510 (2.6%) were called active. 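Calls use total luciferase alone and ignore viability, so some active siRNAs may act by altering cell number.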 The numbers tell different reagents against one gene apart. Further read-outs or replicates are left out here. No sequences are given here.

RAP1GDS1 #1
- total luciferase, z-score: -0.0859
- total luciferase, % of control: 80.2
- call: inactive

RAP1GDS1 #2
- total luciferase, z-score: 0.3
- total luciferase, % of control: 87.9
- call: inactive

RAP1GDS1 #3
- total luciferase, z-score: 0.614
- total luciferase, % of control: 94.1
- call: inactive

SREBF2 #1
- total luciferase, z-score: 1
- total luciferase, % of control: 102
- call: inactive

SREBF2 #2
- total luciferase, z-score: -1.23
- total luciferase, % of control: 57.4
- call: inactive

SREBF2 #3
- total luciferase, z-score: 0.407
- total luciferase, % of control: 90
- call: inactive

TRABD2A #1
- total luciferase, z-score: 0.19
- total luciferase, % of control: 85.7
- call: inactive

TRABD2A #2
- total luciferase, z-score: 0.696
- total luciferase, % of control: 95.7
- call: inactive

TRABD2A #3
- total luciferase, z-score: 1.16
- total luciferase, % of control: 105
- call: inactive

UBASH3B #1
- total luciferase, z-score: 1.76
- total luciferase, % of control: 117
- call: inactive

UBASH3B #2
- total luciferase, z-score: 2.32
- total luciferase, % of control: 128
- call: inactive

UBASH3B #3
- total luciferase, z-score: 0.0461
- total luciferase, % of control: 82.8
- call: inactive

AREG #1
- total luciferase, z-score: 2.67
- total luciferase, % of control: 135
- call: inactive

AREG #2
- total luciferase, z-score: 0.106
- total luciferase, % of control: 84
- call: inactive

AREG #3
- total luciferase, z-score: -0.128
- total luciferase, % of control: 79.3
- call: inactive

SNPH #1
- total luciferase, z-score: 0.771
- total luciferase, % of control: 97.2
- call: inactive

SNPH #2
- total luciferase, z-score: 0.0104
- total luciferase, % of control: 82.1
- call: inactive

SNPH #3
- total luciferase, z-score: 0.866
- total luciferase, % of control: 99.1
- call: inactive

DNALI1 #1
- total luciferase, z-score: -0.364
- total luciferase, % of control: 74.7
- call: inactive

DNALI1 #2
- total luciferase, z-score: 0.0195
- total luciferase, % of control: 82.3
- call: inactive

DNALI1 #3
- total luciferase, z-score: 8.4
- total luciferase, % of control: 249
- call: active

IL1R2 #1
- total luciferase, z-score: -1.21
- total luciferase, % of control: 57.8
- call: inactive

IL1R2 #2
- total luciferase, z-score: 1.21
- total luciferase, % of control: 106
- call: inactive

IL1R2 #3
- total luciferase, z-score: 0.345
- total luciferase, % of control: 88.8
- call: inactive

BATF3 #1
- total luciferase, z-score: 0.205
- total luciferase, % of control: 86
- call: inactive

BATF3 #2
- total luciferase, z-score: -0.627
- total luciferase, % of control: 69.4
- call: inactive

BATF3 #3
- total luciferase, z-score: 0.482
- total luciferase, % of control: 91.5
- call: inactive

MED13 #1
- total luciferase, z-score: -0.916
- total luciferase, % of control: 63.7
- call: inactive

MED13 #2
- total luciferase, z-score: -0.139
- total luciferase, % of control: 79.1
- call: inactive

MED13 #3
- total luciferase, z-score: -0.201
- total luciferase, % of control: 77.9
- call: inactive

GABRP #1
- total luciferase, z-score: 0.0591
- total luciferase, % of control: 83.1
- call: inactive

GABRP #2
- total luciferase, z-score: -0.92
- total luciferase, % of control: 63.6
- call: inactive

GABRP #3
- total luciferase, z-score: 0.406
- total luciferase, % of control: 90
- call: inactive

Part of the list above in another layout.
Target gene,reagent no.,"total luciferase, z-score","total luciferase, % of control",call
RAP1GDS1,3,0.614,94.1,inactive
SREBF2,1,1,102,inactive
